PubChem BioAssay AID504793 – Drosophila RNAi Screening Center, 2011

Screen: 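Whole-genome screen for parts of the DNA damage checkpoint at G2/M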 (primary screen)
Cell system: Drosophila S2R+ cells
Reagents: long dsRNA against Drosophila genes, about 0.25 µg dsRNA per well
Time to read-out: 4 days of dsRNA, then 4 hours of drug before read-out
Challenge: doxorubicin 0.5 µM for 4 hours to cause double-strand breaks, in cells also given a low, harmless dose of dsRNA against nbs to sensitise the assay
Measurement: 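Per-well count of mitotic cells stained for phospho-histone H3 after doxorubicin exposure, used as mitotic index; counts are raw and not normalised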
Direction: mitotic cells: higher = more cells in mitosis, weaker G2 arrest
Active means: 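a call needs confirmation in secondary tests, with other dsRNAs and a check of mitotic timing without damage, not just a high primary count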
Calls: active = confirmed in follow-up tests; inactive = not confirmed
The screen tested about 23,000 reagents; below is a random part of those with a known target gene and a result. In the full data, 62 (0.27%) were called active. 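Calls come from follow-up tests whose scores are not deposited, so confirmed genes may have low counts here; counts are not normalised per plate.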 Raw values vary from plate to plate and are shown uncorrected. Names joined by + are all predicted targets of the reagent.

mitotic cells, replicate 1 | activity call | gene | dsRNA
5 | inactive | CG16898 | DRSC06635
4 | inactive | CG16898 | DRSC24760
10 | inactive | Lcp1Psi (Larval cuticle protein 1 pseudogene) | DRSC05105
8 | inactive | Lcp1Psi (Larval cuticle protein 1 pseudogene) | DRSC28465
2 | inactive | Ir52b (Ionotropic receptor 52b) | DRSC06263
11 | inactive | CG41520 | DRSC21102
8 | inactive | CG13229 | DRSC06349
3 | inactive | CG17059 + Fsn | DRSC26666
3 | inactive | qm (quemao) | DRSC11386
8 | inactive | qm (quemao) | DRSC26597
6 | inactive | Naa20B (N(alpha)-acetyltransferase 20 B) | DRSC21442
5 | inactive | Naa20B (N(alpha)-acetyltransferase 20 B) | DRSC27158
2 | inactive | CG17712 | DRSC00266
7 | inactive | cv-c (crossveinless c) | DRSC14969
3 | inactive | cv-c (crossveinless c) | DRSC14970
5 | inactive | cv-c (crossveinless c) | DRSC14972
3 | inactive | cv-c (crossveinless c) | DRSC16428
9 | inactive | cv-c (crossveinless c) | DRSC23199
6 | inactive | cv-c (crossveinless c) | DRSC23809
10 | inactive | cv-c (crossveinless c) | DRSC25812
7 | inactive | cv-c (crossveinless c) | DRSC27016
7 | inactive | CG12594 | DRSC14532
3 | inactive | CG12594 | DRSC27229
6 | inactive | CG15386 + CG42371 | DRSC00400
3 | inactive | CG15386 + CG42371 | DRSC30077
7 | inactive | roq (roquin) | DRSC10227
4 | inactive | CG6901 | DRSC16129
6 | inactive | CG6901 | DRSC26477
7 | inactive | MFS18 (Major Facilitator Superfamily Transporter 18) | DRSC00452
2 | inactive | Lcp1 (Larval cuticle protein 1) | DRSC07455
5 | inactive | fbp (fructose-1,6-bisphosphatase) | DRSC02077
12 | inactive | Gr64a (Gustatory receptor 64a) | DRSC21713
7 | inactive | l(2)k10201 (lethal (2) k10201) | DRSC06439
4 | inactive | l(2)k10201 (lethal (2) k10201) | DRSC07640
3 | inactive | Gasz | DRSC06829
2 | inactive | Gasz | DRSC27833
10 | inactive | mthl12 (methuselah-like 12) | DRSC12964
6 | inactive | Mctp (Multiple C2 domain and transmembrane region protein) | DRSC06510
10 | inactive | Mctp (Multiple C2 domain and transmembrane region protein) | DRSC22896
6 | inactive | Mctp (Multiple C2 domain and transmembrane region protein) | DRSC25505
7 | inactive | Mctp (Multiple C2 domain and transmembrane region protein) | DRSC28921
8 | inactive | Klp67A + CG34456 | DRSC10420
10 | inactive | Ankle2 | DRSC20105
6 | inactive | Ankle2 | DRSC20106
4 | inactive | CG18233 | DRSC10308
9 | inactive | CG12860 | DRSC06200
8 | inactive | CG12860 | DRSC26264
4 | inactive | LysS (Lysozyme S) | DRSC08677
10 | inactive | LysS (Lysozyme S) | DRSC27168
10 | inactive | CG13876 | DRSC08346
9 | inactive | CG6472 | DRSC06989
7 | inactive | CG13398 | DRSC02268
9 | inactive | Vha55 (Vacuolar H[+]-ATPase 55kD subunit) | DRSC16896
12 | inactive | Vha55 (Vacuolar H[+]-ATPase 55kD subunit) | DRSC26184
13 | inactive | Pp4-19C (Protein phosphatase 19C) | DRSC20559
34 | inactive | Pp4-19C (Protein phosphatase 19C) | DRSC21251
11 | inactive | Pp4-19C (Protein phosphatase 19C) | DRSC23319
4 | inactive | Pp4-19C (Protein phosphatase 19C) | DRSC26053
5 | inactive | AstA-R2 (Allatostatin A receptor 2) | DRSC14171
6 | inactive | AstA-R2 (Allatostatin A receptor 2) | DRSC24820
9 | inactive | mtd (mustard) | DRSC12131
6 | inactive | mtd (mustard) | DRSC12380
4 | inactive | mtd (mustard) | DRSC12381
2 | inactive | mtd (mustard) | DRSC29132
12 | inactive | Fer1HCH (Ferritin 1 heavy chain homologue) | DRSC16671
9 | inactive | Fer1HCH (Ferritin 1 heavy chain homologue) | DRSC39138
– | inactive | AspRS (Aspartyl-tRNA synthetase) | DRSC05914
10 | inactive | Mdh2 (retired record) | DRSC16361
6 | inactive | Fdx2 (Ferredoxin 2) | DRSC08306
17 | inactive | Lgr3 (Leucine-rich repeat-containing G protein-coupled receptor 3) | DRSC15704
11 | inactive | Lgr3 (Leucine-rich repeat-containing G protein-coupled receptor 3) | DRSC15706
6 | inactive | CG10444 | DRSC05990
4 | inactive | CG11555 | DRSC24179
4 | inactive | beta3GalTII (beta-1,3-Galactosyltransferase II) | DRSC07253
2 | inactive | beta3GalTII (beta-1,3-Galactosyltransferase II) | DRSC29091
3 | inactive | Dbp73D (Dead box protein 73D) | DRSC11142
4 | inactive | Ugt35E1 (UDP-glycosyltransferase family 35 member E1) | DRSC15193
8 | inactive | Ugt35E1 (UDP-glycosyltransferase family 35 member E1) | DRSC27215
4 | inactive | cav (caravaggio) | DRSC15995
3 | inactive | cav (caravaggio) | DRSC26206
12 | inactive | CG10801 | DRSC17761
2 | inactive | polybromo | DRSC14307
5 | inactive | Srp54 (Splicing regulatory protein 54) | DRSC03442
5 | inactive | Atg18a (Autophagy-related 18a) | DRSC10943
7 | inactive | E(bx) (Enhancer of bithorax) | DRSC08172
21 | active | E(bx) (Enhancer of bithorax) | DRSC08509
39 | active | E(bx) (Enhancer of bithorax) | DRSC08583
10 | inactive | CR18275 (pseudo) | DRSC18151
4 | inactive | CR18275 (pseudo) | DRSC28716
5 | inactive | CG14687 | DRSC14910
7 | inactive | CG14687 | DRSC29639
9 | inactive | Cyp6g2 (Cytochrome P450 6g2) | DRSC07387
8 | inactive | Cyp6g2 (Cytochrome P450 6g2) | DRSC29325
8 | inactive | mRpL55 (mitochondrial ribosomal protein L55) | DRSC14764
5 | inactive | yellow-f2 | DRSC16372
4 | inactive | yellow-f2 | DRSC26523
11 | inactive | CG12206 | DRSC24963
6 | inactive | Hsp60B (Heat shock protein 60B) | DRSC00542
7 | inactive | CG17739 | DRSC06689
8 | inactive | CG17739 | DRSC26518
10 | inactive | E(spl)m4-BFM (Enhancer of split m4, Bearded family member) | DRSC16992
13 | inactive | E(spl)m4-BFM (Enhancer of split m4, Bearded family member) | DRSC27642
3 | inactive | CG8420 | DRSC16418
5 | inactive | CG2991 | DRSC00559
8 | inactive | CG2991 | DRSC26300
26 | inactive | CG14205 | DRSC19560
3 | inactive | CG14205 | DRSC28253
1 | inactive | tutl (turtle) | DRSC00441
8 | inactive | tutl (turtle) | DRSC00442
2 | inactive | tutl (turtle) | DRSC00443
10 | inactive | tutl (turtle) | DRSC27605

Copied from the listing, 16 entries:
mitotic cells, replicate 1 | activity call | gene | dsRNA
7 | inactive | CG13398 | DRSC02268
9 | inactive | Vha55 (Vacuolar H[+]-ATPase 55kD subunit) | DRSC16896
12 | inactive | Vha55 (Vacuolar H[+]-ATPase 55kD subunit) | DRSC26184
13 | inactive | Pp4-19C (Protein phosphatase 19C) | DRSC20559
34 | inactive | Pp4-19C (Protein phosphatase 19C) | DRSC21251
11 | inactive | Pp4-19C (Protein phosphatase 19C) | DRSC23319
4 | inactive | Pp4-19C (Protein phosphatase 19C) | DRSC26053
5 | inactive | AstA-R2 (Allatostatin A receptor 2) | DRSC14171
6 | inactive | AstA-R2 (Allatostatin A receptor 2) | DRSC24820
9 | inactive | mtd (mustard) | DRSC12131
6 | inactive | mtd (mustard) | DRSC12380
4 | inactive | mtd (mustard) | DRSC12381
2 | inactive | mtd (mustard) | DRSC29132
12 | inactive | Fer1HCH (Ferritin 1 heavy chain homologue) | DRSC16671
9 | inactive | Fer1HCH (Ferritin 1 heavy chain homologue) | DRSC39138
– | inactive | AspRS (Aspartyl-tRNA synthetase) | DRSC05914
